Results as given in the supplement of paper PMC10849652.
This is one part of the list.

Sequences of proteins named here, by UniProt entry; tags and fusion partners are left off. A change or cut given only in a name is not applied to a line headed by its entry.
UniProt Q15527: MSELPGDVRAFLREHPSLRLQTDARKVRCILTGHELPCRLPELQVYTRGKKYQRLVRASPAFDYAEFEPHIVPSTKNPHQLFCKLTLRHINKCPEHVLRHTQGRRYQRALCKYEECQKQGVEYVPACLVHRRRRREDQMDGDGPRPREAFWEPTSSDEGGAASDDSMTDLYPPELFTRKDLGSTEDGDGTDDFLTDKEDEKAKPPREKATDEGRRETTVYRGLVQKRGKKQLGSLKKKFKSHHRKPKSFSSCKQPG
UniProt Q15208: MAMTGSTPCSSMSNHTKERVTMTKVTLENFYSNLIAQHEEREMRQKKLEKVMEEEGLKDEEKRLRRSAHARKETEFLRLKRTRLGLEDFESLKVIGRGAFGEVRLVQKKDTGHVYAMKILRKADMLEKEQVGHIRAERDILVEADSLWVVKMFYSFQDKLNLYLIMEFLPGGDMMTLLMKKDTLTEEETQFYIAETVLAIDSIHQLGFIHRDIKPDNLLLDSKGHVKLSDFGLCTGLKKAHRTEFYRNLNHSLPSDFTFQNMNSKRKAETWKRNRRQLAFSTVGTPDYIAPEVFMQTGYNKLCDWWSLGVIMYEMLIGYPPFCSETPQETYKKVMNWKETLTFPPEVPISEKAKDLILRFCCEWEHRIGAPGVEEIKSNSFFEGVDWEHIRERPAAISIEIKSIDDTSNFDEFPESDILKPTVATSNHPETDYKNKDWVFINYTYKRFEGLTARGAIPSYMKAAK
UniProt P49848, whole entry, looked up: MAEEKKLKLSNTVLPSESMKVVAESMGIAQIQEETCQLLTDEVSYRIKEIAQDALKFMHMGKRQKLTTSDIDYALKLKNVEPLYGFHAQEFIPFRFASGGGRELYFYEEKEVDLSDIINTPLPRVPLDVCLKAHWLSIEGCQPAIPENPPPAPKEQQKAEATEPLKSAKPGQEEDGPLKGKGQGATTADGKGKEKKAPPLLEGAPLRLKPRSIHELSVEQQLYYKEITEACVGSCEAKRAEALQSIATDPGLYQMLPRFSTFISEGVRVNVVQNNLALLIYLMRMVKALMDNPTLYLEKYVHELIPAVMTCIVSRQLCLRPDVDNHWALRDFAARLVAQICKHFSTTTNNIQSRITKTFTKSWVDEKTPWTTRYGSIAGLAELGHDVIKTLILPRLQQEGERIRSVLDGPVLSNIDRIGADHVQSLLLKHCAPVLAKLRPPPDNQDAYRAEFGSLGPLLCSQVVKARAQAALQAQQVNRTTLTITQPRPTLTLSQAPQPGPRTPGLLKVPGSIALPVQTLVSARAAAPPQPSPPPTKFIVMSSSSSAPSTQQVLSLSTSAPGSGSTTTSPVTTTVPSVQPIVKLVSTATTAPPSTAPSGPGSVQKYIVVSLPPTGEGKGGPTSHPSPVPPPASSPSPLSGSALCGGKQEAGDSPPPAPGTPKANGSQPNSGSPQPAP
UniProt Q15750: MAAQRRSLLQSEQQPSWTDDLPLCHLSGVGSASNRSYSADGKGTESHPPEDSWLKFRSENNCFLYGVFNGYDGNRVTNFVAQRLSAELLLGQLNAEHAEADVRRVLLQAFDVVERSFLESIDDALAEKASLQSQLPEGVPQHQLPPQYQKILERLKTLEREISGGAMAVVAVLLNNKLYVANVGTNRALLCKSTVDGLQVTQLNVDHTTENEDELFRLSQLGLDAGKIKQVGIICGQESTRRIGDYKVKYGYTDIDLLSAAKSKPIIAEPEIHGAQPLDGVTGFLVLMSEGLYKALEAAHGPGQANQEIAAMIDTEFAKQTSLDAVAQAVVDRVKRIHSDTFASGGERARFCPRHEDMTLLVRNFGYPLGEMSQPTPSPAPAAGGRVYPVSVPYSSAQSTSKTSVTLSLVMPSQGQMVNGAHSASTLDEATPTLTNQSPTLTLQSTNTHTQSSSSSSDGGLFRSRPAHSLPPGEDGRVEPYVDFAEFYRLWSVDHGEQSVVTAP
UniProt Q9UMZ2: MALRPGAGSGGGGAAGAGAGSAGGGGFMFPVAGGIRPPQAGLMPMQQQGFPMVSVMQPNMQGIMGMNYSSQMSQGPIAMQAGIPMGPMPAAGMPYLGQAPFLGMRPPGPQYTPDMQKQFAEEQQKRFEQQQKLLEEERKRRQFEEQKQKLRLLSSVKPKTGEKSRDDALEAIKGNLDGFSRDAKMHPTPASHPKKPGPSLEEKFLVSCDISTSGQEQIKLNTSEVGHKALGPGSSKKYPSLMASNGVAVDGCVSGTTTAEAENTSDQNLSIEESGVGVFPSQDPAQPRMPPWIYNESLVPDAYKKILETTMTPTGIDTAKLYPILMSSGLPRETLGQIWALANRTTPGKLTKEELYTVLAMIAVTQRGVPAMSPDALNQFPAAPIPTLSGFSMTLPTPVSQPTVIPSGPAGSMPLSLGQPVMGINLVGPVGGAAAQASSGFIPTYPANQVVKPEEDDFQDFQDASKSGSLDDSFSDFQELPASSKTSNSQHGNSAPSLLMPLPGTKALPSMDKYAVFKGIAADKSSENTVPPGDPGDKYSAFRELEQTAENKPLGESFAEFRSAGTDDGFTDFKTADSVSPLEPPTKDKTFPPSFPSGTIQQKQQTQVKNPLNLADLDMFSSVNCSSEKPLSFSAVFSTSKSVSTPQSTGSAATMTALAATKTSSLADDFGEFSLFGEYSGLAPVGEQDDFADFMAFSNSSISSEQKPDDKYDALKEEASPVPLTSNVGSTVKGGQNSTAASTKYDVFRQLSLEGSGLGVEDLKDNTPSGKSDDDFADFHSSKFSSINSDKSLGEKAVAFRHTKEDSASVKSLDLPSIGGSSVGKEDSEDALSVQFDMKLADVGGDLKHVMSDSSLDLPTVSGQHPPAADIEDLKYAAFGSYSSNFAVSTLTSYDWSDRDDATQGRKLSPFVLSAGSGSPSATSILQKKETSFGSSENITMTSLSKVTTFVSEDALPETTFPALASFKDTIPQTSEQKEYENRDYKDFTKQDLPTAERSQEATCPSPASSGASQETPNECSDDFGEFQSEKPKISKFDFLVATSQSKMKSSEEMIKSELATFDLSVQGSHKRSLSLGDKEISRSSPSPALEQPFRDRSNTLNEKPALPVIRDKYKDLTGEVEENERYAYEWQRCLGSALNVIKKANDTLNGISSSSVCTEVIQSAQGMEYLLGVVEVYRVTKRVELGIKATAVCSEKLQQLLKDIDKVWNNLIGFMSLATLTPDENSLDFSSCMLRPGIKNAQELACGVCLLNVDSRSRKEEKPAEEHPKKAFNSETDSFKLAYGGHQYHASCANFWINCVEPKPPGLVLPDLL
UniProt P16949: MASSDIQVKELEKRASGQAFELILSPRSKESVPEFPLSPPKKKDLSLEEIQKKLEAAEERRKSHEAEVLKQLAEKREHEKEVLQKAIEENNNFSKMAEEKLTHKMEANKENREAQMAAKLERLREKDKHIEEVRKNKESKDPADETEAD
UniProt Q12846: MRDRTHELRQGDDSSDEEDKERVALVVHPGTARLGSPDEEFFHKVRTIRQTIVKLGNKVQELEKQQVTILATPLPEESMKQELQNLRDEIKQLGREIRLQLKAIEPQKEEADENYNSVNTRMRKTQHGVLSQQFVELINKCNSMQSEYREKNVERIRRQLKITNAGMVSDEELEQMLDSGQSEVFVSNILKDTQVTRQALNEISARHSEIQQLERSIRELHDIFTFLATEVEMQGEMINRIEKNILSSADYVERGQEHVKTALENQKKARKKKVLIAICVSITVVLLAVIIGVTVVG
UniProt Q96I99: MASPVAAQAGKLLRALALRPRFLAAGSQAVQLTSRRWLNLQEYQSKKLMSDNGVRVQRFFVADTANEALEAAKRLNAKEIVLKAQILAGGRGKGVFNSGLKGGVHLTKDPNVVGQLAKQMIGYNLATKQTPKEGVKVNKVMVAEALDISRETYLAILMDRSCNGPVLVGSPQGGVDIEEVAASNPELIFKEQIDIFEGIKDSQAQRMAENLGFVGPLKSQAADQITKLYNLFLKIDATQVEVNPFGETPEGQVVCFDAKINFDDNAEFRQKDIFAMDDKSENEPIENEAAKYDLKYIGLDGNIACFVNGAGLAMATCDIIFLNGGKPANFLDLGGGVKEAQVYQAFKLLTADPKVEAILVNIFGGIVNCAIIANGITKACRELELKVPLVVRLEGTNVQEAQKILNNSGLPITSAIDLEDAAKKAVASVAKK
UniProt P55854, whole entry, looked up: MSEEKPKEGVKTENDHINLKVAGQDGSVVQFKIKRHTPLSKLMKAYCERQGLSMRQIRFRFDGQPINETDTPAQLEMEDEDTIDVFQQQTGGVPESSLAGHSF
UniProt Q9H7L9: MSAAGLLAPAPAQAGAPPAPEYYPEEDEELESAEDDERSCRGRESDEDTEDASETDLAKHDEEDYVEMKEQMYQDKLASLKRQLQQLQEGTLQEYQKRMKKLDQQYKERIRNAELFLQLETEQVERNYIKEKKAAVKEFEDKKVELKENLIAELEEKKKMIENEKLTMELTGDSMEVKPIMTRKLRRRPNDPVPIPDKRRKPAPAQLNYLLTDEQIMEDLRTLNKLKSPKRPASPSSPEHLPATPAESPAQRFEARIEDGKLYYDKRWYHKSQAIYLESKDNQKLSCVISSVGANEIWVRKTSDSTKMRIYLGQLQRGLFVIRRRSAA
UniProt Q13033: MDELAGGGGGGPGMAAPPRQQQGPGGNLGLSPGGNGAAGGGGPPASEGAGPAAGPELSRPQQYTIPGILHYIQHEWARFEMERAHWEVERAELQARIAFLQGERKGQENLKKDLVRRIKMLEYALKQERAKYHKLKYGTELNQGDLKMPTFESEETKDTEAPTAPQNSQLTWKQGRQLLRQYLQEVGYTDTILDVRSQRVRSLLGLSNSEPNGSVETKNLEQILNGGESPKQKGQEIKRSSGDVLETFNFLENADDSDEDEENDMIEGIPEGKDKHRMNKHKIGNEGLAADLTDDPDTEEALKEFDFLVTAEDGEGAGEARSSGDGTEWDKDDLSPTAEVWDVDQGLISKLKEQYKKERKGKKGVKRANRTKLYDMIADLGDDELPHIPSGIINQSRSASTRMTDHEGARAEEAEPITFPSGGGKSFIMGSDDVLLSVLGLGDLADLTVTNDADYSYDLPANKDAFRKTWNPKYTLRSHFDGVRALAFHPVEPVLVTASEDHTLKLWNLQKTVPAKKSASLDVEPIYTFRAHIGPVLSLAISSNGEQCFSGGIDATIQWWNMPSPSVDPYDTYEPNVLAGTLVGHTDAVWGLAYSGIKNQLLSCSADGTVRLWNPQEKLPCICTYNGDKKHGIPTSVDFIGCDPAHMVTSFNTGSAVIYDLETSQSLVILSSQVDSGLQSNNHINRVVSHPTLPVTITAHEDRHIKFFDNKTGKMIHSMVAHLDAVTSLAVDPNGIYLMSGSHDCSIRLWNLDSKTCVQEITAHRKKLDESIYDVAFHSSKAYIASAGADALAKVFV
UniProt Q13586, whole entry, looked up: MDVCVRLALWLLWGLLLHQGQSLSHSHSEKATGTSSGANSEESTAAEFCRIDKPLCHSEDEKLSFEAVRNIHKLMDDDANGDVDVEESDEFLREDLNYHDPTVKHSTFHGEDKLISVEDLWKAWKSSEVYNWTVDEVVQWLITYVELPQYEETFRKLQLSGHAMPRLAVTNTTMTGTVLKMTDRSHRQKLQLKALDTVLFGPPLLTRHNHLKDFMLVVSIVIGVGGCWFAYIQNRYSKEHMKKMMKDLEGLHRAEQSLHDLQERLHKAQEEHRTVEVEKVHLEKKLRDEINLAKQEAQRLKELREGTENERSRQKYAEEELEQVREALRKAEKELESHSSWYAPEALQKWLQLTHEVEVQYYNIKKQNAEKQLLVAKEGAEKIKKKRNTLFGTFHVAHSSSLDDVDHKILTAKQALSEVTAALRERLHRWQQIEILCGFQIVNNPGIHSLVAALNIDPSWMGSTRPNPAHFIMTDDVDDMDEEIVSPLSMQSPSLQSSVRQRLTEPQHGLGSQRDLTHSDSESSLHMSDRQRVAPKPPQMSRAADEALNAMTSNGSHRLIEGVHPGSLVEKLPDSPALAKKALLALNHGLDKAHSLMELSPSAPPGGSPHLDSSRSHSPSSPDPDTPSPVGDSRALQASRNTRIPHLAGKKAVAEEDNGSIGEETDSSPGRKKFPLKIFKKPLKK
UniProt Q9H169: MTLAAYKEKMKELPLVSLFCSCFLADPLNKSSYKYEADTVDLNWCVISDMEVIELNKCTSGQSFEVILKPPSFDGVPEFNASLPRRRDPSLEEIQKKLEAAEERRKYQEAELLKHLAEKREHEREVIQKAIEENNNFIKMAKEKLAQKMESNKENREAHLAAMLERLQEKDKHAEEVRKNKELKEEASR
UniProt O60499: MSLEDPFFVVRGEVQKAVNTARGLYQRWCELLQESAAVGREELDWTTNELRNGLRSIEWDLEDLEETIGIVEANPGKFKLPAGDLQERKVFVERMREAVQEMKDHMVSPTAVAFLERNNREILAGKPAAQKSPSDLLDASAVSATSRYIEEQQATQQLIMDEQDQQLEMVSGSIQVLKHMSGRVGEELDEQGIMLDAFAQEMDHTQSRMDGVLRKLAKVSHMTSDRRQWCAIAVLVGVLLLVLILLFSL
UniProt Q8NHG7: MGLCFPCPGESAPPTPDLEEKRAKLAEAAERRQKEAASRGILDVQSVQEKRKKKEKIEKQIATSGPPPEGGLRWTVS

Assays:
Test in all cases: log2 fold change, soluble protein after heating vs DMSO (PISA); higher = thermal stabilisation; K562 lysate, 10 uM; active = over 0.2 and 3.5 SD of the protein, either way, in both replicates (recomputed)
[1] = compound: C1=CC=C(C=C1)[C@H](COC2=CC3=C(C=C2)NC(=O)N3)NC(=O)C4=CC=CN(C4=O)CC5=CC(=C(C=C5)F)F
How it was run: (§1)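 Log-two fold change in thermal stability relative to solvent controls is reported from duplicates. For each sample, crude K562 extract from dounce-homogenised pellets in PBS pH 7.4 with 1 mM MgCl2, at 1 mg/mL protein, was treated with 10 μM compound for 30 min. Aliquots heated for 3 min across 48°C-58°C were pooled, brought to 0.5% NP-40 at 4°C and cleared at 21,000xg for 90 min. The supernatant was quantified by TMTpro 16plex LC-MS/MS with channel sums equalised.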

[2] = compound: CC1=C(SC2=C1C(=N[C@H](C3=NN=C(N32)C)CC(=O)N)C4=CC=C(C=C4)Cl)C
How it was run: as §1

[3] = compound: CC1=C2C(=CC=C1)N=C(N(C2=O)C3=CC=CC=C3C)CN4C=NC5=C(N=CN=C54)N
How it was run: as §1

[4] = compound: Cc1sc2c(c1C)C(c1ccc(Cl)cc1)=N[C@@H](CC(=O)OC(C)(C)C)c1nnc(C)n1-2
How it was run: as §1

[5] = compound: c1ccc([C@@H]2C[C@H]2NC2CCNCC2)cc1
How it was run: as §1

Measured: log2 fold change

SURF2 (UniProt Q15527)
inactive: [1] -0.013 | [2] 0.054 | [3] -0.054 | [4] 0.056 | [5] -0.032

SYNCRIP (UniProt O60506)
inactive: [1] -0.003 | [2] 0.014 | [3] -0.01 | [4] 0.029 | [5] 0.032

STK38 (UniProt Q15208)
inactive: [1] -0.089 | [2] -0.02 | [3] -0.014 | [4] -0.012 | [5] -0.066

SUN2 isoform 2 (UniProt Q9UH99)
inactive: [1] 0.072 | [2] 0.159 | [3] 0.136 | [4] 0.082 | [5] 0.102

STK3 isoform 2 (UniProt Q13188)
inactive: [1] -0.031 | [2] -0.042 | [3] -0.108 | [4] 0.01 | [5] -0.073

STX12 (UniProt Q86Y82)
inactive: [1] 0.059 | [2] 0 | [3] 0.042 | [4] -0.055 | [5] -0.037

TAF6 isoform 3 (UniProt P49848)
inactive: [1] 0.048 | [2] 0.095 | [3] 0.042 | [4] 0.063 | [5] 0.02

TAB1 (UniProt Q15750)
inactive: [1] -0.007 | [2] 0.045 | [3] -0.023 | [4] -0.001 | [5] 0.028

SYNRG (UniProt Q9UMZ2)
inactive: [1] -0.033 | [2] 0.05 | [3] 0 | [4] 0.005 | [5] 0.032

STMN1 (UniProt P16949)
inactive: [1] 0.006 | [2] -0.008 | [3] 0.003 | [4] -0.022 | [5] -0.03

STX4 (UniProt Q12846)
inactive: [1] 0.024 | [2] -0.022 | [3] 0.061 | [4] -0.055 | [5] 0.066

SUCLG2 (UniProt Q96I99)
inactive: [1] 0.016 | [2] 0.049 | [3] 0.019 | [4] 0.033 | [5] 0.036

SUMO3 isoform 2 (UniProt P55854)
inactive: [1] 0.016 | [2] -0.016 | [3] 0.003 | [4] -0.028 | [5] -0.026

STRAP isoform 2 (UniProt Q9Y3F4)
inactive: [1] -0.001 | [2] 0.049 | [3] -0.029 | [4] 0.03 | [5] 0.032

SUDS3 (UniProt Q9H7L9)
inactive: [1] 0.008 | [2] -0.035 | [3] 0.027 | [4] -0.027 | [5] -0.052

SYNE2 isoform 2 (UniProt Q8WXH0)
inactive: [1] -0.037 | [2] 0.044 | [3] 0.02 | [4] -0.065 | [5] -0.416

STK11 (UniProt Q15831)
inactive: [1] 0.043 | [2] 0.029 | [3] 0.028 | [4] 0.003 | [5] -0.05

TAF15 (UniProt Q92804)
inactive: [1] 0.024 | [2] 0.004 | [3] -0.019 | [4] -0.021 | [5] 0.008

TACC3 (UniProt Q9Y6A5)
inactive: [1] 0.009 | [2] 0.008 | [3] -0.022 | [4] 0 | [5] -0.019

STRN3 (UniProt Q13033)
inactive: [1] -0.011 | [2] -0.046 | [3] -0.076 | [4] 0.019 | [5] 0.109

SURF4 (UniProt O15260)
inactive: [1] -0.032 | [2] -0.014 | [3] 0.041 | [4] -0.065 | [5] -0.11

STX8 (UniProt Q9UNK0)
inactive: [1] 0.012 | [2] -0.051 | [3] 0.036 | [4] 0.013 | [5] 0.038

STIP1 isoform 2 (UniProt P31948)
inactive: [1] 0.016 | [2] -0.015 | [3] -0.028 | [4] 0.025 | [5] 0.039

STOM (UniProt P27105)
inactive: [1] 0.008 | [2] 0.043 | [3] -0.011 | [4] -0.078 | [5] -0.061

SYNJ2BP-COX16, A0A087WYV9
inactive: [1] 0.125 | [2] -0.012 | [3] -0.024 | [4] 0.092 | [5] 0.102

TAF5L (UniProt O75529)
inactive: [1] -0.066 | [2] -0.03 | [3] -0.18 | [4] 0.017 | [5] 0.261

SUMF1 (UniProt Q8NBK3)
inactive: [1] -0.034 | [2] 0.004 | [3] 0.015 | [4] -0.044 | [5] -0.026

STIM1 (UniProt Q13586)
inactive: [1] -0.048 | [2] -0.008 | [3] 0.049 | [4] 0.028 | [5] 0.048

SYK (UniProt P43405)
inactive: [1] -0.016 | [2] 0.06 | [3] 0.135 | [4] 0.008 | [5] -0.052

STK25 (UniProt O00506)
inactive: [1] -0.05 | [2] 0.035 | [3] -0.062 | [4] 0.053 | [5] -0.048

Two neighbouring records already listed, quoted:
SYK (UniProt P43405)
inactive: [1] -0.016 | [2] 0.06 | [3] 0.135 | [4] 0.008 | [5] -0.052

STK25 (UniProt O00506)
inactive: [1] -0.05 | [2] 0.035 | [3] -0.062 | [4] 0.053 | [5] -0.048

Next records:

STK39 (UniProt Q9UEW8)
inactive: [1] 0.011 | [2] -0.056 | [3] 0.049 | [4] 0 | [5] 0.078

SUB1 (UniProt P53999)
inactive: [1] 0.014 | [2] 0 | [3] -0.004 | [4] 0 | [5] -0.071

STMN4 isoform 2 (UniProt Q9H169)
inactive: [1] -0.005 | [2] 0.031 | [3] -0.041 | [4] 0.029 | [5] 0.055

STX10 (UniProt O60499)
inactive: [1] 0.11 | [2] -0.029 | [3] 0.051 | [4] -0.059 | [5] -0.167

SUCLG1 (UniProt P53597)
inactive: [1] 0.044 | [2] 0.021 | [3] 0.011 | [4] -0.012 | [5] 0.08

STK36 (UniProt Q9NRP7)
inactive: [1] -0.014 | [2] 0.174 | [3] 0.163 | [4] -0.43 | [5] -0.42

SUPT16H (UniProt Q9Y5B9)
inactive: [1] -0.011 | [2] -0.018 | [3] 0.014 | [4] -0.007 | [5] 0.052

SVIP (UniProt Q8NHG7)
inactive: [1] 0.02 | [2] -0.048 | [3] -0.052 | [4] -0.069 | [5] -0.028

SYTL4 (UniProt Q96C24)
inactive: [1] -0.021 | [2] 0.174 | [3] 0.047 | [4] 0.041 | [5] 0.215
